Record: PubChem BioAssay AID504764 (Drosophila RNAi Screening Center, 2011)

Screen: 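Knock-downs that raise or lower a Notch target reporter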 (primary screen)
Cell system: Drosophila Kc167 cells
Reagents: long dsRNA against Drosophila genes
Time to read-out: about 5 days (4 days dsRNA, then 24 h after transfection)
Challenge: transfection of constitutively active membrane-tethered Notch lacking the extracellular domain, read 24 h later
Detection: 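Light from a Notch-responsive E(spl)m3 luciferase reporter under active Notch, with control-promoter and no-Notch reporter wells to normalise; raw counts from paired wells a and b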
Reading the numbers: induced reporter light, run 1, well a and induced reporter light, run 1, well b: higher = more light from the Notch target reporter with active Notch; control promoter light, run 1, well a and control promoter light, run 1, well b: higher = more light from the viral control promoter (cell number, transfection, viability); uninduced reporter light, run 1, well a: higher = more light from the Notch target reporter without active Notch
Hit rule: 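Wells with low control signal or poorly matching duplicates excluded; duplicates averaged; per source plate, z beyond ±2 for induced/control log2 ratio or beyond ±1.8 for induced/uninduced marks a hit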
Meaning of the calls: active = modifier hit (raised or lowered Notch signal); inactive = not a hit
The deposit covers about 22,000 reagents; this is a random part of those that have a named target and a result. In the full data, 403 (1.9%) were called active. 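Unnormalised raw counts per well; ratio z-scores behind the hit calls and whether each hit raises or lowers signal are not deposited.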 The numbers tell different reagents against one gene apart. The record does not give: the amount of reagent.

| gene | reagent no. | induced reporter light, run 1, well a | induced reporter light, run 1, well b | control promoter light, run 1, well a | control promoter light, run 1, well b | uninduced reporter light, run 1, well a | Outcome |
| --- | --- | --- | --- | --- | --- | --- | --- |
| Ten-a | 1 | 79255 | 74270 | 89105 | 66455 | 5440 | inactive |
| Ten-a | 2 | 5855 | 5875 | 13830 | 13005 | 2785 | inactive |
| Ten-a | 3 | 1.25e5 | 1.29e5 | 2.34e5 | 2.23e5 | 10055 | inactive |
| Ten-a | 4 | 1.04e5 | 1.11e5 | 2.06e5 | 1.87e5 | 8245 | inactive |
| Ten-a | 5 | 1.38e5 | 1.49e5 | 2.27e5 | 2.02e5 | 10270 | inactive |
| Ten-a | 6 | 1.02e5 | 1.03e5 | 1.97e5 | 1.81e5 | 7630 | inactive |
| Ten-a | 7 | 1.13e5 | 1.15e5 | 2.01e5 | 2.49e5 | 8655 | inactive |
| Ten-a | 8 | – | – | – | – | – | inactive |
| CG12895 | 1 | 1.68e5 | 2.01e5 | 2.47e5 | 1.93e5 | 15875 | inactive |
| CG13653 | 1 | 1.37e5 | 1.56e5 | 2.42e5 | 1.87e5 | 12420 | inactive |
| CG13014 | 1 | 72650 | 42015 | 67790 | 59960 | 8710 | inactive |
| enok | 1 | 1.03e5 | 1.07e5 | 80350 | 80320 | 6930 | inactive |
| CG30269 | 1 | 1.69e5 | 1.41e5 | 1.84e5 | 1.64e5 | 11145 | inactive |
| CG42254 (retired record) | 1 | 81200 | 85190 | 1.04e5 | 1.06e5 | 8335 | inactive |
| CG9747 | 1 | 1.61e5 | 2.09e5 | 2.47e5 | 2.34e5 | 11500 | inactive |
| CG12531 | 1 | 93860 | 89540 | 1.07e5 | 1.46e5 | 12710 | inactive |
| CG9449 | 1 | 1.02e5 | 64305 | 72740 | 50740 | 5615 | inactive |
| obst-J | 1 | 1.36e5 | 1.41e5 | 1.21e5 | 1.34e5 | 13800 | inactive |
| CG6472 | 1 | 40615 | 41755 | 54110 | 43230 | 4205 | inactive |
| CG14797 | 1 | 1.21e5 | 1.28e5 | 1.99e5 | 1.77e5 | 9245 | inactive |
| Pgm2b | 1 | 1.37e5 | 1.65e5 | 1.69e5 | 1.29e5 | 12610 | inactive |
| Rtca | 1 | 2.00e5 | 1.98e5 | 2.71e5 | 2.33e5 | 12990 | inactive |
| Atg12 | 1 | 1.58e5 | 1.96e5 | 2.60e5 | 1.80e5 | 9490 | inactive |
| Rcd4 | 1 | 1.87e5 | 1.91e5 | 1.12e5 | 1.39e5 | 22855 | inactive |
| mip130 | 1 | 26455 | 27630 | 44305 | 53525 | 2442 | inactive |
| Cnep1r2 | 1 | 1.26e5 | 1.30e5 | 69460 | 29555 | 9670 | inactive |
| rut | 1 | 2985 | 2415 | 3850 | 4015 | 3445 | inactive |
| CG5961 | 1 | 1.52e5 | 1.98e5 | 1.31e5 | 1.14e5 | 10620 | inactive |
| CG7744 | 1 | 1.05e5 | 96855 | 2.05e5 | 2.12e5 | 8638 | inactive |
| CG4597 | 1 | 2.00e5 | 1.83e5 | 1.91e5 | 1.37e5 | 10155 | inactive |
| mEFTu1 | 1 | 1.06e5 | 1.02e5 | 1.05e5 | 96280 | 7835 | inactive |
| kirre | 1 | 96675 | 98965 | 1.64e5 | 1.21e5 | 8088 | inactive |
| CG31913 | 1 | 89685 | 84950 | 1.31e5 | 1.36e5 | 7790 | inactive |
| Cpr49Af | 1 | 83430 | 92150 | 1.31e5 | 1.31e5 | 8970 | inactive |
| wge | 1 | 1.58e5 | 1.72e5 | 2.48e5 | 2.64e5 | 11945 | inactive |
| wge | 2 | 1.52e5 | 1.58e5 | 1.88e5 | 1.92e5 | 11065 | inactive |
| CG10950 | 1 | 1.27e5 | 1.19e5 | 98825 | 1.08e5 | 8585 | inactive |
| l(3)psg2 | 1 | 76675 | 1.01e5 | 96655 | 48655 | 12720 | inactive |
| CG8031 | 1 | 1.74e5 | 1.35e5 | 1.07e5 | 1.04e5 | 8675 | inactive |
| ac | 1 | 28090 | 26880 | 41280 | 36305 | 6535 | inactive |
| CG31465 | 1 | 2.08e5 | 1.82e5 | 1.98e5 | 2.40e5 | 16165 | inactive |
| Syt7 | 1 | 94580 | 87270 | 1.78e5 | 1.70e5 | 7480 | inactive |
| Syt7 | 2 | 1.22e5 | 1.07e5 | 1.85e5 | 2.26e5 | 7595 | inactive |
| CG5418 | 1 | 1.47e5 | 1.47e5 | 1.41e5 | 1.42e5 | 11130 | inactive |
| CG13455 | 1 | 1.94e5 | 1.87e5 | 2.72e5 | 2.09e5 | 9720 | inactive |
| Naam | 1 | 1.83e5 | 1.96e5 | 1.93e5 | 2.25e5 | 12280 | inactive |
| CG11436 | 1 | 1.74e5 | 1.71e5 | 2.36e5 | 2.30e5 | 11825 | inactive |
| Setx | 1 | 3.23e5 | 2.93e5 | 4.09e5 | 4.22e5 | 26875 | inactive |
| CG5003 | 1 | 2.10e5 | 2.07e5 | 2.35e5 | 2.95e5 | 13975 | inactive |
| CG1317 | 1 | 1.01e5 | 82195 | 1.75e5 | 1.60e5 | 6730 | inactive |
